Results are given in words; binding and its absence hold for the method and conditions named. Some binding calls cover weakened binding; strength is not graded here. Blank lines part the entries; values can stand above or below the binder they belong to.
How the values were obtained:
[1] = molecular target: 人半乳糖凝集素-9 (human galectin-9) (human) (UniProt O00182); assay: HuProt human proteome microarray, fluorescent secondary antibody
[2] = molecular target: 人细胞表达的半乳糖凝集素-9 (galectin-9 as expressed by human tumour-derived cells and tissue) (human) (UniProt O00182); assay: cell-based binding to human cancer cell line CRL-2134

Protein sequences, listed by entry. Tags and fused reporters are not part of them. Lines headed by an entry give the natural chain unless they say otherwise; changes in a name come on top. Chains listed by the source or under a name are the forms on record and can include a tag or linker.
人半乳糖凝集素-9 (human galectin-9) (O00182, form named): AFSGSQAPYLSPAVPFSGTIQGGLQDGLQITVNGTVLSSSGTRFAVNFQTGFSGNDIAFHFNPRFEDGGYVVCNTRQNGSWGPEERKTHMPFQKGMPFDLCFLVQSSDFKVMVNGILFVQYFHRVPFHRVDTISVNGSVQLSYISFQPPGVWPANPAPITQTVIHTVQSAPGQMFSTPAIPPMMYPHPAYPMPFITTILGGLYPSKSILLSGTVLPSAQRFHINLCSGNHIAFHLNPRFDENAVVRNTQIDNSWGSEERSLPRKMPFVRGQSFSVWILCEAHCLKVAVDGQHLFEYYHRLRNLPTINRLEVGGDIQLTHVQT

binding [1]: binds
B1: G9.2-17(IgG4) (antibody, V domains shown)
VH: EVQLVESGGGLVQPGGSLRLSCAASGFTVSSSSIHWVRQAPGKGLEWVAYISSSSGYTYYADSVKGRFTISADTSKNTAYLQMNSLRAEDTAVYYCARYWSYPSWWPYRGMDYWGQGTLVTVSS
VL: DIQMTQSPSSLSASVGDRVTITCRASQSVSSAVAWYQQKPGKAPKLLIYSASSLYSGVPSRFSGSRSGTDFTLTISSLQPEDFATYYCQQSSTDPITFGQGTKVEIKR

binding [2]: binds
B2: mIgG1 G9.2-17 (antibody, V domains shown)
VH: B1 VH
VL: B1 VL

From patent publication CN117500522A
